Measured data: PubChem BioAssay AID1259307 (Sanger Institute, 2017)

- Purpose: 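Screen of kinase gene silencing for colorectal cancer cell killing and drug cooperation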 (primary screen)
- Cell system: SW620 colorectal cancer cells
- Knock-down reagent: siRNA pool against human genes
- Conditions: anchor drugs BYL719 at 1 µM, cetuximab at 5 µg/ml or trametinib at 10 nM, each beside a DMSO vehicle arm
- Measurement: 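Cell viability in each well relative to non-targeting controls, averaged over replicates and turned into a robust z-score; synergy with BYL719 (1 µM), cetuximab (5 µg/ml), trametinib (10 nM) versus DMSO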
- Reading the numbers: viability robust z-score, no drug and viability vs control, no drug: higher = more viable cells; synergy score with BYL719 and synergy score with cetuximab and synergy score with trametinib: higher = stronger synthetic lethality with the drug
- Call rule: 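a knock-down counts as lethal alone if its drug-free robust viability z-score is lower than -3, regardless of synergy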
- Meaning of the calls: active = essential (lethal alone); inactive = no change alone
Shown is an unselected part of 794 deposited reagents. 15 of them (1.9%) count as active. 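Calls reflect lethality without any drug; synergy scores did not enter the calls.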 No viability above 1 is reported: the scale is capped. Not stated in the record: the amount of reagent, the time to read-out.

gene symbol	viability robust z-score, no drug	viability vs control, no drug	synergy score with BYL719	synergy score with cetuximab	synergy score with trametinib	activity call
NF1 (GeneID 4763)	0.736	1	-0.0495	0.0712	0.0029	inactive
MERTK (GeneID 10461)	-1.8	0.766	-0.0501	-0.0549	0.0142	inactive
NUP62 (GeneID 23636)	-1.83	0.763	0.0301	-0.13	-0.0256	inactive
ACO1 (GeneID 48)	0.649	0.992	0.00536	0.0237	0.132	inactive
DLG1 (GeneID 1739)	0.715	0.998	0.0721	0.0257	0.122	inactive
PTPN11 (GeneID 5781)	0.164	0.947	-0.00506	-0.0528	-0.0755	inactive
TLK2 (GeneID 11011)	0.298	0.96	-0.00395	0.00197	-0.0768	inactive
CSNK2B (GeneID 1460)	-0.644	0.873	-0.114	0.0661	-0.0122	inactive
HIPK2 (GeneID 28996)	0.736	1	-0.0735	0	0.0923	inactive
VRK3 (GeneID 51231)	-1.93	0.754	0.0104	-0.195	-0.0864	inactive
STK17A (GeneID 9263)	-0.748	0.863	-0.00838	-0.0961	-0.0529	inactive
GNAS (GeneID 2778)	0.517	0.98	0.103	-0.0202	0.0388	inactive
MAGI2 (GeneID 9863)	-0.758	0.862	-0.0163	-0.138	-0.154	inactive
MYO3A (GeneID 53904)	-0.0958	0.923	-0.011	0.0865	-0.00721	inactive
GUCY2C (GeneID 2984)	0.736	1	-0.00559	0	0.0649	inactive
PDK4 (GeneID 5166)	0.736	1	0.069	0.00834	0.0562	inactive
FLT1 (GeneID 2321)	-0.314	0.903	-0.0557	-0.0969	-0.00627	inactive
RPS6KA1 (GeneID 6195)	-0.0277	0.93	0.108	0.0946	0.0489	inactive
TWF2 (GeneID 11344)	0.736	1	-0.0143	0.0466	-0.152	inactive
SCYL3 (GeneID 57147)	-0.668	0.87	-0.074	-0.0703	-0.0428	inactive
CSK (GeneID 1445)	0.736	1	-0.0919	0	-0.0737	inactive
STK10 (GeneID 6793)	-0.289	0.905	-0.0791	-0.0946	-0.00851	inactive
MAPK11 (GeneID 5600)	0.736	1	0.0402	0.0727	0.022	inactive
MAP3K2 (GeneID 10746)	0.736	1	-0.0822	0	-0.0713	inactive
ERBB3 (GeneID 2065)	0.736	1	0.0421	0.0457	0.0188	inactive
ALDH18A1 (GeneID 5832)	0.736	1	0.0263	0	-0.0358	inactive
PLK4 (GeneID 10733)	-1.38	0.805	-0.0408	0.0176	-0.0574	inactive
DDR2 (GeneID 4921)	-0.0356	0.929	-0.0607	-0.0668	-0.0122	inactive
CDK17 (GeneID 5128)	-2.4	0.711	-0.0292	0.017	-0.0519	inactive
RPS6KA3 (GeneID 6197)	0.736	1	-0.0516	0.0104	0.0116	inactive
CDC73 (GeneID 79577)	-1.25	0.817	-0.0941	-0.0384	0.0197	inactive
DDR1 (GeneID 780)	0.736	1	-0.0919	0	-0.0576	inactive
STK26 (GeneID 51765)	0.694	0.996	0.0569	-0.00393	0.0489	inactive
CDKL3 (GeneID 51265)	0.243	0.955	-0.133	-0.0455	-0.125	inactive
HIPK1 (GeneID 204851)	0.736	1	0.0027	0	-0.0799	inactive
CSNK1A1 (GeneID 1452)	-0.746	0.863	-0.0597	0.0339	-0.0925	inactive
FN1 (GeneID 2335)	0.421	0.971	-0.118	-0.0291	-0.0803	inactive
NAGK (GeneID 55577)	-2.16	0.733	-0.155	-0.112	-0.134	inactive
STAG2 (GeneID 10735)	-0.0647	0.926	-0.139	-0.0739	-0.152	inactive
MAP3K3 (GeneID 4215)	-0.738	0.864	0.00148	-0.000311	0.0582	inactive
EFNB3 (GeneID 1949)	-3.77	0.584	-0.0778	-0.169	-0.0742	active
MAGI3 (GeneID 260425)	0.736	1	0.0586	0	0.0304	inactive
DLG2 (GeneID 1740)	0.66	0.993	0.0333	-0.00699	0.0606	inactive
RAD21 (GeneID 5885)	-0.46	0.89	-0.0444	-0.0638	-0.0518	inactive
COQ8B (GeneID 79934)	0.736	1	-0.0766	0	-0.0886	inactive
MINK1 (GeneID 50488)	-0.367	0.898	-0.00364	-0.0592	0.0884	inactive
PDGFRB (GeneID 5159)	0.736	1	0.0827	0.0944	0.0185	inactive
DYRK1B (GeneID 9149)	-0.497	0.886	-0.128	-0.114	-0.0867	inactive
PRPS2 (GeneID 5634)	0.736	1	-0.0687	0	-0.0117	inactive
MAP3K1 (GeneID 4214)	-0.175	0.916	-0.0635	-0.0841	0.0321	inactive

Entries above with an active call:
gene symbol	viability robust z-score, no drug	viability vs control, no drug	synergy score with BYL719	synergy score with cetuximab	synergy score with trametinib	activity call
EFNB3 (GeneID 1949)	-3.77	0.584	-0.0778	-0.169	-0.0742	active
